The supplement of paper PMC12823440, “Inhibitors supercharge kinase turnover through native proteolytic circuits” (Nature, 2025)
Where a name gives a salt, the structure may show the parent alone. The list shows a part of the results. Hit calls seldom repeat between salt and free forms of one compound.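 Kinases, fused to nanoluciferase, were expressed in K562 cells; luminescence was measured every 4 h from 2 to 18 h as percent of control (DMSO = 100%, positive control = 0%). A time point is decreased if signal falls significantly (2 sigma). Hits were called by the authors by a rule that is not shown; the count of time points alone does not decide it.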

Biological target: RAF1_S257L (clone: RAF1_mut) (UniProt P04049)
Test: kinase-Nluc reporter destabilization hit call (1 = scored as downregulated) (binary); higher = compound decreases kinase abundance
Conditions: K562; 2-18 h

| SMILES | kinase-Nluc reporter destabilization hit call |
| --- | --- |
| C=CC(=O)N1CCC[C@@H](n2c(=O)n(-c3ccc(Oc4ccccc4)cc3)c3c(N)nccc32)C1 [Tolebrutinib] (10 µM) | inactive: 0 |
| C[C@]1(O)C[C@@](N)(c2ccc(-c3nc4n(c3-c3ccccc3)COc3ccncc3-4)cc2)C1 [TAS-117 (hydrochloride)] (10 µM) | inactive: 0 |
| CCOC(=O)C1=C[C@]2(CC)CCCN3CCc4c(n1c1ccccc41)[C@@H]32 [Vinpocetine] (10 µM) | inactive: 0 |
| CC(C)(C)NS(=O)(=O)c1cncc(-c2cc(F)c3nc(N)nn3c2)c1 (10 µM) | inactive: 0 |
| CC(C)(C)c1ccc(C(=O)Nc2cn3cc(-n4ccnc4)ccc3n2)cc1 (10 µM) | inactive: 0 |
| Cc1nc(NC(=O)N2CCC[C@H]2C(N)=O)sc1-c1csc(C(C)(C)C)n1 (10 µM) | inactive: 0 |
| N#Cc1cn([C@@H]2O[C@H](CO)[C@@H](O)[C@H]2O)c2nc[nH]c(=O)c12 [Jaspamycin] (10 µM) | inactive: 0 |
| Cc1ccc(-c2csc(Cn3nc(CC4OCCCO4)c4ccccc4c3=O)n2)cc1 (10 µM) | inactive: 0 |
| CNC(=O)c1c(C)oc2cc(Oc3ncnc4cc(OC)c(OC)cc34)ccc12 [Fruquintinib] (10 µM) | inactive: 0 |
| O=S(=O)(N=Cc1c(O)ccc2ccccc12)c1cccs1 (10 µM) | inactive: 0 |
| NC(=O)c1cccc2c(N[C@H](CN3CCC3)c3ccc(Cl)c(C(F)(F)F)c3)ncnc12 (10 µM) | inactive: 0 |
| CN1CCC(c2ccccc2CC(C)(C)Nc2nc(N3CCOCC3)nc(-n3c(S(C)(=O)=O)nc4ccccc43)n2)CC1 (10 µM) | inactive: 0 |
| O=c1ccc2cc(O)c(O)cc2o1 [Esculetin] (10 µM) | inactive: 0 |
| O=C(Nc1nc2cccc(-c3ccc(CN4CCS(=O)(=O)CC4)cc3)n2n1)C1CC1 [Filgotinib] (2.5 µM) | inactive: 0 |
| CC(C)(O)c1cc2nc(-c3cnc(N)nc3)nc(N3CCOCC3)c2s1 (2.5 µM) | inactive: 0 |
| Cn1cc(-c2ccc3ncc(Cc4ccc5ncccc5c4)n3n2)cn1 (10 µM) | inactive: 0 |
| CC(=O)c1cc(O)ccc1O [2,5-Dihydroxyacetophenone] (10 µM) | inactive: 0 |

A second format for part of the listing above.
SMILES,kinase-Nluc reporter destabilization hit call
CC(C)(C)c1ccc(C(=O)Nc2cn3cc(-n4ccnc4)ccc3n2)cc1 (10 µM),inactive: 0
Cc1nc(NC(=O)N2CCC[C@H]2C(N)=O)sc1-c1csc(C(C)(C)C)n1 (10 µM),inactive: 0

Remaining list, next part.

| SMILES | kinase-Nluc reporter destabilization hit call |
| --- | --- |
| COc1ccc(COc2cc3oc(=O)c4cc(C(C)O)ccc4c3cc2OC)cc1 (stereo not drawn) [Palomid 529] (2.5 µM) | inactive: 0 |
| O=C(CC(c1ccccc1)C(C(=O)O)C(=O)O)c1ccc(C(F)(F)F)cc1 (stereo not drawn) (10 µM) | inactive: 0 |
| CC(C)[C@H](CO)Nc1nc(Nc2ccc(C(=O)O)c(Cl)c2)c2ncn(C(C)C)c2n1 [Purvalanol B] (10 µM) | inactive: 0 |
| COc1cc2nccc(Oc3ccc(NC(=O)Nc4ccc(F)cc4F)c(F)c3)c2cc1OC (10 µM) | inactive: 0 |
| N#C/C(=C\c1ccc[nH]1)c1ccc(Cl)c(Cl)c1 (2.5 µM) | inactive: 0 |
| O=c1cc(-c2ccc(O)cc2)oc2cc(O)c(O)c(O)c12 [Scutellarein] (10 µM) | inactive: 0 |
| CC(C)n1nc(C#Cc2ccccc2)c2c(N)ncnc21 (10 µM) | inactive: 0 |
| O=C(N=c1sccn1Cc1ccccc1)c1c[nH]c2ncccc12 (10 µM) | inactive: 0 |
| CC(C)=C/C=C1\O[C@@H]2CC(C)=CC(=O)[C@@H]2[C@]1(C)O [Bisabolangelone] (10 µM) | inactive: 0 |
| COc1ccc(C2CC(c3ccc(Cl)cc3)=NN2c2nc(-c3ccncc3)cs2)cc1 (stereo not drawn) [mTOR inhibitor-8] (10 µM) | inactive: 0 |
| Cc1cc(F)c(Nc2ncnc3cc(OCc4ccccc4)ccc23)cc1O (10 µM) | inactive: 0 |
| CNCCOc1ccccc1C(C)(C)Nc1nccn(-c2cc(C(=O)NC3CC3)ccc2C)c1=O [p38α inhibitor 2] (10 µM) | inactive: 0 |
| CCn1c(-c2nonc2N)nc2c(C#CCO)ncc(OCCCN)c21 [AKT Kinase Inhibitor] (10 µM) | inactive: 0 |
| NC(=O)c1nc(-c2c(F)cccc2Cl)oc1Nc1ccc(C(=O)N2CCOCC2)cc1 (10 µM) | inactive: 0 |
| O=C(NCc1cccc(O)c1)c1cc2cc(F)ccc2[nH]1 (10 µM) | inactive: 0 |
| Cc1nc(Nc2ncc(C(=O)Nc3c(C)cccc3Cl)s2)cc(N2CCN(C(=O)CCCCCCC(=O)N[C@H](C(=O)N3C[C@H](O)C[C@H]3C(=O)NCc3ccc(-c4scnc4C)cc3)C(C)(C)C)CC2)n1 (2.5 µM) | inactive: 0 |
